{"source": "paper doi:10.1101/452904", "about": "(bioRxiv, 2018)", "target": "T1, FLAG-Sec24D (human) (UniProt O94855)", "T1 sequence": "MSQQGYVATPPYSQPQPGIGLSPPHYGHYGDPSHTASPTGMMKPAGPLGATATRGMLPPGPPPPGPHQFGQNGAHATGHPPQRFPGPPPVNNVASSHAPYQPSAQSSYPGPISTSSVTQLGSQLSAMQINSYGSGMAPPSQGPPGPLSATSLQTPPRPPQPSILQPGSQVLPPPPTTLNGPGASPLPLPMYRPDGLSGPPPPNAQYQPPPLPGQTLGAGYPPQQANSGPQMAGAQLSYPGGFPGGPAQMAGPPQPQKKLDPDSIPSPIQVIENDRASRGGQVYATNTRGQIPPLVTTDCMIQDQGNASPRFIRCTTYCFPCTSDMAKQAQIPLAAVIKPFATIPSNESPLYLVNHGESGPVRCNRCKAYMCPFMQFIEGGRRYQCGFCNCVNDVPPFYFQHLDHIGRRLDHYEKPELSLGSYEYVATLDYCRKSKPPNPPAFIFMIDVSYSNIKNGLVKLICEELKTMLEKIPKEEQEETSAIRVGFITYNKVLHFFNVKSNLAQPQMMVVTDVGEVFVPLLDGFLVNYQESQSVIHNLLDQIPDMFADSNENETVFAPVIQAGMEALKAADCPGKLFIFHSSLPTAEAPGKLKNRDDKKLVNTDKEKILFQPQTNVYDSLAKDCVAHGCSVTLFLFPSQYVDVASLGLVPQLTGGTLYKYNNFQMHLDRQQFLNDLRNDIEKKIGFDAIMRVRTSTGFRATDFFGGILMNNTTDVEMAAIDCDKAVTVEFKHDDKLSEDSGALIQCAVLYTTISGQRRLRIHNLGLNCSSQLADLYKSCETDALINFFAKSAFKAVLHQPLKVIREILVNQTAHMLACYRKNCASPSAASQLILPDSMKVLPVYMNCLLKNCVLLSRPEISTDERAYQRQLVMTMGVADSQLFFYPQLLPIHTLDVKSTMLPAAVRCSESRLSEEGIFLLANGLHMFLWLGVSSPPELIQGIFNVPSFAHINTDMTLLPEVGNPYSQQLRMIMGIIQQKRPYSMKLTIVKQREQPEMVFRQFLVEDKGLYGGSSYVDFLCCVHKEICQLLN", "test": "pull-down", "note": "These are yes or no findings as the source states them, for the method shown. Tags and fused reporters may be left off the sequences shown.", "data": [{"substance": "GST-tagged cTAGE5-PRD (651–804aa)-His6 wild-type (human) (domain or fragment)", "values": [{"measurement": "binding", "value": "no binding"}]}]}
